# Experimental data from patent US20260048049A1, “METHODS FOR TREATING CANCER USING INHALED ANGIOGENESIS INHIBITOR” (Pulmatrix Operating Company, Inc., priority 2022, published 2026).
# At least one structure is not confirmed: it was looked up by name or label, or the drawing left a doubt.
# How the values were obtained:
# [1] = system: Aspergillus; conditions: approximated by dotted line in FIG. 22B; cited from earlier work
# [2] = UniDose POD in vitro dissolution of the impactor stage mass (ISM); type: physicochemical; conditions: one 10 mg capsule, RS01 DPI, 60 L/min
# Excerpt: The following in vitro dissolution model was used to understand the dissolution properties of itraconazole containing dry powder aerosols. The aerosol particles were collected at well-defined aerosol particle size distribution (APSD) cut-offs using the Next Generation Impactor (NGI) (Copley Scientific, UK), and then the dissolution behavior simulated using model lung fluid.
# A UniDose™ (Nanopharm, Newport, United Kingdom) aerosol dose collection system combined with a modified next generation impactor (NGI) was used to uniformly deposit the impactor stage mass (ISM), which is defined as the dose collected on and below stage 2 of a next generation impactor, onto a suitable filter for subsequent dissolution studies in a USP V—Paddle over disk (POD) apparatus.
# The aerosol dose was collected in the UniDose system. […] The UniDose collection system was used to uniformly deposit the whole impactor stage mass (i.e., below stage 2 of an NGI) onto a glass microfiber filter membrane, which can be seen as where the circles (representing particles or droplets) deposit. The filter was placed into a disk cassette and dissolution studies were undertaken using 500 ml PBS pH 7.4+2.0% SDS in a USP Apparatus II POD (Paddle Over Disk, USP V) at 37° C. For all studies, sink conditions were maintained within the vessel. […]
smiles,measurement,setting,value
"CCC(C)n1ncn(-c2ccc(N3CCN(c4ccc(OCC5COC(Cn6cncn6)(c6ccc(Cl)cc6Cl)O5)cc4)CC3)cc2)c1=O (centres unmarked) [Pure ITZ, itraconazole]",Aspergillus MIC,[1],500 ng/g or ng/ml
same,UniDose ISM,[2],2.55 mg
